According to article PMC5118696, “Identification of inhibitors that dually target the new permeability pathway and dihydroorotate dehydrogenase in the blood stage of Plasmodium falciparum” (Scientific Reports, 2016):
Like-named read-outs stand apart in the source and are kept apart here.

What was measured:
[1] = tested on: Hyp1-NLuc Plasmodium falciparum-infected erythrocytes (new permeability pathway, NPP); assay: microbe, parasite or virus in culture; details: Erythrocyte, 0.33 h, read-out: Mean RLU at 28 min (As % of DMSO control)
[2] = tested on: Hyp1-NLuc Plasmodium falciparum-infected erythrocytes (new permeability pathway, NPP); assay: microbe, parasite or virus in culture; details: Erythrocyte, 0.33 h, read-out: % of control remaining

Question: Which activity at 2 µM [1] does the source give for `C=CC12CCN(CC1)C(C(O)c1ccnc3ccc(OC)cc13)C2` (centres unmarked) [MMV665782] here?
Answer: Its activity at 2 µM is 102%.

Question: And the activity at 2 µM [2]?
Answer: The activity at 2 µM was 100%.
